{"source": "paper PMC11157767", "about": "(Molecular Cancer, 2024)", "test_system": "TRIM24-MET-i PDOX", "settings": "PDX trial cap vs cabo", "note": "Values joined by “and” are separate entries in the source; they are usually repeats but may differ in a detail not shown here. Equal entries are not always repeated. Where two headings read alike, the source gives them in different places. Further values from the same series stand in other lists.", "data": [{"smiles": "CNC(=O)c1ccc(-c2cnc3ncc(Cc4ccc5ncccc5c4)n3n2)cc1F", "note": "[Capmatinib]", "values": [{"measurement": "BLI signal, individual mice", "setting": "day 7", "value": "3.40E+07 and 9.75E+06 and 1.52E+06 and 7.12E+07 and 1.10E+07"}, {"measurement": "BLI signal, individual mice", "setting": "day 9", "value": "5.27E+07 and 7.33E+07 and 2.46E+07 and 1.25E+07 and 9.36E+07 and 2.95E+07"}, {"measurement": "BLI signal, individual mice", "setting": "day 14", "value": "2.89E+07 and 4.47E+07 and 1.07E+07 and 9.58E+06 and 4.41E+07 and 1.75E+07"}, {"measurement": "BLI signal, individual mice", "setting": "day 17", "value": "8.30E+06 and 1.08E+07 and 3.11E+05 and 1.16E+07 and 1.46E+07 and 6.19E+06"}, {"measurement": "BLI signal, individual mice", "setting": "day 21", "value": "9.07E+06 and 1.26E+07 and 1.15E+07 and 1.31E+07 and 2.09E+07 and 1.02E+07"}, {"measurement": "BLI signal, individual mice", "setting": "day 24", "value": "5.56E+06 and 1.03E+07 and 1.36E+07 and 1.28E+07 and 1.09E+07"}, {"measurement": "BLI signal, individual mice", "setting": "day 28", "value": "7.43E+06 and 7.15E+06 and 1.24E+07 and 1.98E+07 and 1.79E+07 and 1.04E+07"}, {"measurement": "BLI signal, individual mice", "setting": "day 31", "value": "5.43E+06 and 5.33E+06 and 1.51E+07 and 1.57E+07 and 1.53E+07 and 1.65E+07"}, {"measurement": "BLI signal, individual mice", "setting": "day 35", "value": "6.89E+05 and 1.12E+07 and 1.52E+07 and 2.26E+07 and 1.45E+07"}, {"measurement": "BLI signal, individual mice", "setting": "day 38", "value": "8.82E+04 and 1.26E+07 and 1.66E+07 and 1.77E+07 and 1.67E+07"}, {"measurement": "BLI signal, individual mice", "setting": "day 42", "value": "4.52E+04 and 1.34E+07 and 1.70E+07 and 2.43E+07 and 1.81E+07"}, {"measurement": "BLI signal, individual mice", "setting": "day 49", "value": "4.09E+04 and 1.40E+07 and 1.15E+07 and 1.29E+07 and 1.04E+07"}, {"measurement": "BLI signal, individual mice", "setting": "day 52", "value": "1.20E+04 and 1.19E+07 and 1.06E+07 and 1.39E+07"}, {"measurement": "BLI signal, individual mice", "setting": "day 56", "value": "1.66E+05 and 1.62E+07 and 1.51E+07 and 1.46E+07 and 1.01E+07"}, {"measurement": "BLI signal, individual mice", "setting": "day 59", "value": "1.66E+04 and 1.45E+07 and 1.32E+07 and 9.28E+06"}, {"measurement": "BLI signal, individual mice", "setting": "day 63", "value": "1.00E+04 and 1.56E+07 and 1.50E+07 and 1.67E+07 and 1.73E+07"}, {"measurement": "BLI signal, individual mice", "setting": "day 66", "value": "1.88E+04 and 1.21E+07 and 1.10E+07 and 1.09E+07 and 1.15E+07"}, {"measurement": "BLI signal, individual mice", "setting": "day 70", "value": "1.29E+04 and 1.30E+07 and 1.18E+07 and 1.05E+07 and 9.45E+06"}, {"measurement": "BLI signal, individual mice", "setting": "day 73", "value": "1.25E+04 and 1.36E+07 and 1.40E+07 and 1.57E+07 and 1.37E+07"}, {"measurement": "BLI signal, individual mice", "setting": "day 77", "value": "2.38E+04 and 1.11E+07 and 1.27E+07 and 1.95E+07 and 1.41E+07"}, {"measurement": "BLI signal, individual mice", "setting": "day 80", "value": "4.09E+05 and 1.22E+07 and 1.34E+07 and 1.51E+07 and 1.21E+07"}, {"measurement": "BLI signal, individual mice", "setting": "day 87", "value": "5.57E+04 and 8.07E+06 and 1.19E+07 and 1.62E+07 and 1.30E+07"}, {"measurement": "BLI signal, individual mice", "setting": "day 94", "value": "5.16E+06 and 8.75E+04 and 9.14E+06 and 1.32E+07 and 1.22E+07 and 1.18E+07"}, {"measurement": "BLI signal, individual mice", "setting": "day 101", "value": "4.91E+06 and 1.63E+05 and 1.19E+07 and 1.18E+07 and 1.62E+07 and 1.28E+07"}, {"measurement": "BLI signal, individual mice", "setting": "day 108", "value": "4.82E+06 and 1.31E+05 and 1.13E+07 and 1.14E+07 and 1.60E+07 and 1.16E+07"}, {"measurement": "BLI signal, individual mice", "setting": "day 115", "value": "5.08E+06 and 1.25E+05 and 1.05E+07 and 1.14E+07 and 1.96E+07 and 3.49E+07"}, {"measurement": "BLI signal, individual mice", "setting": "day 122", "value": "5.08E+06 and 1.38E+05 and 1.17E+07 and 1.22E+07 and 1.74E+07 and 1.49E+07"}, {"measurement": "BLI signal, individual mice", "setting": "day 129", "value": "4.08E+06 and 1.16E+05 and 1.09E+07 and 1.17E+07 and 1.27E+07 and 1.03E+07"}, {"measurement": "BLI signal, individual mice", "setting": "day 134", "value": "5.84E+06 and 1.72E+05 and 1.58E+07 and 1.63E+07 and 2.20E+07 and 1.51E+07"}, {"measurement": "BLI signal, individual mice", "setting": "day 147", "value": "3.52E+06 and 6.31E+04 and 7.64E+06 and 8.61E+06 and 1.16E+07 and 8.65E+06"}, {"measurement": "BLI signal, individual mice", "setting": "day 154", "value": "3.35E+06 and 4.61E+04 and 7.03E+06 and 9.83E+06 and 2.79E+06 and 8.33E+06"}, {"measurement": "BLI signal, individual mice", "setting": "day 161", "value": "2.37E+06 and 5.50E+04 and 7.89E+06 and 1.18E+07 and 1.19E+05 and 9.30E+06"}, {"measurement": "BLI signal, individual mice", "setting": "day 175", "value": "4.80E+06 and 4.72E+04 and 8.07E+06 and 1.66E+07 and 9.11E+04 and 8.38E+06"}, {"measurement": "BLI signal, individual mice", "setting": "day 182", "value": "4.95E+06 and 8.47E+04 and 3.64E+05 and 1.77E+07 and 1.39E+05 and 7.49E+06"}, {"measurement": "BLI signal, individual mice", "setting": "day 190", "value": "3.72E+06 and 4.67E+04 and 7.67E+06 and 5.60E+07 and 2.11E+05 and 1.19E+07"}, {"measurement": "BLI signal, individual mice", "setting": "day 196", "value": "6.43E+06 and 5.18E+04 and 3.56E+06 and 1.05E+08 and 3.94E+05 and 1.53E+07"}, {"measurement": "BLI signal, individual mice", "setting": "day 203", "value": "2.74E+07 and 1.05E+05 and 1.04E+07 and 1.46E+05 and 8.75E+07"}, {"measurement": "BLI signal, individual mice", "setting": "day 210", "value": "1.86E+08 and 5.35E+05 and 4.51E+06 and 4.00E+05 and 2.59E+08"}, {"measurement": "BLI signal, individual mice", "setting": "day 217", "value": "7.75E+04 and 8.09E+06 and 4.47E+05 and 1.91E+08"}, {"measurement": "BLI signal, individual mice", "setting": "day 224", "value": "3.08E+05 and 8.83E+06 and 1.05E+09"}, {"measurement": "BLI signal, individual mice", "setting": "day 231", "value": "2.46E+05 and 1.03E+07 and 8.02E+08"}, {"measurement": "BLI signal, individual mice", "setting": "day 238", "value": "2.87E+05 and 7.79E+06"}, {"measurement": "BLI signal, individual mice", "setting": "day 245", "value": "8.09E+04 and 1.06E+07"}, {"measurement": "BLI signal, individual mice", "setting": "day 252", "value": "7.86E+04 and 9.30E+06"}, {"measurement": "BLI signal, individual mice", "setting": "day 259", "value": "9.94E+04 and 1.03E+07"}, {"measurement": "BLI signal, individual mice", "setting": "day 266", "value": "8.77E+04 and 1.13E+07"}, {"measurement": "BLI signal, individual mice", "setting": "day 273", "value": "7.17E+04 and 3.23E+07"}, {"measurement": "BLI signal, individual mice", "setting": "day 280", "value": "1.06E+05 and 3.14E+07"}, {"measurement": "BLI signal, individual mice", "setting": "day 287", "value": "4.68E+04"}, {"measurement": "BLI signal, individual mice", "setting": "day 295", "value": "3.46E+04"}, {"measurement": "BLI signal, individual mice", "setting": "day 301", "value": "5.01E+06"}, {"measurement": "BLI signal, individual mice", "setting": "day 311", "value": "5.67E+04"}, {"measurement": "BLI signal, individual mice", "setting": "day 318", "value": "5.50E+04"}, {"measurement": "BLI signal, individual mice", "setting": "day 325", "value": "5.13E+04"}, {"measurement": "BLI signal, individual mice", "setting": "day 332", "value": "5.78E+04"}]}]}
